Measured values taken from PMC7764960, “Nucleus Accumbens-Associated Protein 1 Binds DNA Directly through the BEN Domain in a Sequence-Specific Manner”.

Assays:
[1] = molecular target: T1, NAC1 (322-485) (Homo sapiens) (UniProt Q96RE7); experiment: ITC; conditions: ITC: 20 mM HEPES pH 7.0, 0.1 M NaCl, 1 mM TCEP, 20 C (Fig 2 legend says 25 C), recombinant protein, residues 322-485
T1 sequence (looked up): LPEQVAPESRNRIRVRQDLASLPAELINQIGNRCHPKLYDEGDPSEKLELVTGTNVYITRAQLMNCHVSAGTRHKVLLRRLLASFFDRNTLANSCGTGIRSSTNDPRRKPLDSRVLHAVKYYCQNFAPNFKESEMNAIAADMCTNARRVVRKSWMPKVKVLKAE

[2] = molecular target: T2, GST-NAC1 (Homo sapiens) (UniProt Q96RE7); experiment: pull-down; conditions: poly(dI/dC); pull-down: 4 C with 10 ug poly(dI/dC), buffer not stated; recombinant protein; residues 2-527; protein details: GST N-term; label: 5' biotin on sense strand
T2 sequence (looked up): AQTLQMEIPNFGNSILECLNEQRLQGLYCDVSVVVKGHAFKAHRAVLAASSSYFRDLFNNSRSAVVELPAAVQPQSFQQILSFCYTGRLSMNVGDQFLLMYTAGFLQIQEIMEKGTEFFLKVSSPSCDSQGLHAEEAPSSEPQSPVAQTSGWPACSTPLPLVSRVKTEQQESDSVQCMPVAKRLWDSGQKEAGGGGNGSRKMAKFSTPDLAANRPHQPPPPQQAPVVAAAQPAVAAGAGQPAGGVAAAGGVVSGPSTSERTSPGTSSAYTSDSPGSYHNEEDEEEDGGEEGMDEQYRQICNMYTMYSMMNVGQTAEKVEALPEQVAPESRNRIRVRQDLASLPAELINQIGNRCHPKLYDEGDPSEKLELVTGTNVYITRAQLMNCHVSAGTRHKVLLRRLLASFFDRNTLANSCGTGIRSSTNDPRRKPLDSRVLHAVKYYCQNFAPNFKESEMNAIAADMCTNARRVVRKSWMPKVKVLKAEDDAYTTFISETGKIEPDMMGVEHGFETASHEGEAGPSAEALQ

Work on GTATGCATGTATGT [GP1 14-mer ssDNA] yielded a Kd ([1]; first event (Kd1), single-stranded DNA) of 200 nM and a Kd ([1]; second event (Kd2), single-stranded DNA) of 460 nM.

“GTATGGCATTATGT (double strand) [GP1 mut 14-mer dsDNA]” gave a Kd ([1]; first event (Kd1)) of 135000 nM.

“TGTGTGTGTATGGCATTATGTATTTATT (double strand) [Biotin-GP1 mut]”: binds more weakly [2].

For some of these results: Weaker means in comparison with the reference protein, sequence or condition of that experiment. Protein sequences can lack the tags named with them. For some of these results: The exact form of at least one protein or probe is not confirmed.
